These are yes or no findings as the source states them, for the method shown. Binding seen in cells or lysates may run through a third protein. Some binding calls cover weakened binding; strength is not graded here. Sequences can lack the tags named with a protein.
Biological target: 3HA-3FLAG-tagged SKP1 (UniProt P63208)
Test: co-IP

By UniProt entry, the sequences of proteins in these tests, tags left out.
UniProt P63208: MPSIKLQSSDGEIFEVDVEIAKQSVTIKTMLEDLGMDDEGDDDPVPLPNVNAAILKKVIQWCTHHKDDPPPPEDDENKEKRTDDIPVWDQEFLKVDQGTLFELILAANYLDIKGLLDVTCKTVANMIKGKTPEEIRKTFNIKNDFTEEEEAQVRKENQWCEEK

binding: binds
B1: 6Myc-tagged FBXL5-FB2 (protein, UniProt Q9UKA1 1-691)
chain: MAPFPEEVDVFTAPHWRMKQLVGLYCDKLSKTNFSNNNDFRALLQSLYATFKEFKMHEQIENEYIIGLLQQRSQTIYNVHSDNKLSEMLSLFEKGLKNVKNEYEQLNYAKQLKERLEAFTRDFLPHMKEEEEVFQPMLMEYFTYEELKDIKKKVIAQHCSQKDTAELLRGLSLWNHAEERQKFFKYSVDEKSDKEAEVSEHGLINKKLPKELLLRIFSYLNPQELCRCSQVSMKWSQLTKTGSLWKHLYPVHWARGDWYSGPATELDTEPDDEWVKNRKDESRAFHEWDEDADIDESEESAEESIAISIAQMEKRLLHGLIHNVLPYVGTSVKTLVLAYSSAVSSKMVRQILELCPNLEHLDLTQTDISDSAFDSWSWLGCCQSLRHLDLSGCEKITDVALEKISRALGILTSHQSGFLKTSTSKITSTAWKNKDITMQSTKQYACLHDLTNKGIGEEIDNEHPWTKPVSSENFTSPYVWMLDAEDLADIEDTVEWRHRNVESLCVMETASNFSCSTSGCFSKDIVGLRTSVCWQQHCASPAFAYCGHSFCCTGTALRTMSSLPESSAMCRKAARTRLPRGKDLIYFGSEKSDQETGRVLLFLSLSGCYQITDHGLRVLTLGGGLPYLEHLNLSGCLTITGAGLQDLVSACPSLNDEYFYYCDNINGPHADTASGCQNLQCGFRACCRSGE

From publication doi:10.1101/133777
